Source: the supplement of paper PMC11348887
Where a name gives a salt, the structure may show the parent alone. Some of the results follow. Small differences around the control level are noise.

Tested on: hPSC-derived cortical neurons (WA09)
Assay: total neurite length per nucleus (MAP2) z-score; higher = more neurite growth
Details: 5 µM; treatment: days 7-14 after plating, readout day 21

Row | Structure (SMILES) | total neurite length per nucleus (z-score)
1 | Cc1c(F)cc(C(=O)NC2CC2)cc1-c1ccc(C(=O)NCC(C)(C)C)cn1 | 0.614
2 | O=C(O)CCC(=O)Nc1ccc(S(=O)(=O)Nc2nccs2)cc1 [Succinylsulfathiazole] | 0.409
3 | Cc1c(-c2ccccc2)oc2c(C(=O)OCCN3CCCCC3)cccc2c1=O [Flavoxate HCl] | -0.754
4 | O=c1[nH]c(=O)n([C@H]2C[C@H](O)[C@@H](CO)O2)cc1I [Idoxuridine] | 0.652
5 | CN1C(=O)C(Cc2c[nH]c3ccccc23)NC1=S (stereo not drawn) [Necrostatin-1] | -0.253
6 | CC(=O)OCC(=O)[C@H]1CC[C@H]2[C@@H]3CCC4=CC(=O)CC[C@]4(C)[C@H]3CC[C@]12C [Deoxycorticosterone acetate] | 0.474
7 | CCCc1cc(C)[nH]c(=O)c1CNC(=O)c1cc(-c2ccc(N3CCN(C(C)C)CC3)nc2)cc2c1cnn2C(C)C | 0.352
8 | COC(=O)C1=CO[C@@H](O[C@@H]2O[C@H](CO)[C@@H](O)[C@H](O)[C@H]2O)[C@@H]2C(CO)=CC[C@H]12 [Geniposide] | -0.394
9 | CC1(C)S[C@@H]2[C@H](NC(=O)[C@H](NC(=O)N3CCNC3=O)c3ccccc3)C(=O)N2[C@H]1C(=O)O [Azlocillin sodium salt] | 1.44
10 | NC(=O)c1noc([C@H](CCCC2CCCCC2)CC(=O)NO)n1 | 0.766
11 | NC(=O)C(c1ccccc1)(c1ccccc1)[C@@H]1CCN(CCc2ccc3c(c2)CCO3)C1 [Darifenacin HBr] | -1.8
12 | CC[C@H]1OC(=O)C[C@@H](O)[C@H](C)[C@@H](O[C@@H]2O[C@H](C)[C@@H](O[C@H]3C[C@@](C)(O)[C@@H](O)[C@H](C)O3)[C@H](N(C)C)[C@H]2O)[C@@H](CC=O)C[C@@H](C)C(=O)/C=C/C(C)=C/[C@@H]1CO[C@@H]1O[C@H](C)[C@@H](O)[C@@H](OC)[C@H]1OC [Tylosin tartrate] | -0.37
13 | Cc1cc(Cl)ccc1OCCCC(=O)NO [Droxinostat] | -0.0242
14 | CCOc1cc(C(=O)N2CCC(N3CCN(C)CC3)CC2)ccc1Nc1ncc2c(n1)N(C1CCCC1)c1ccccc1C(=O)N2C | -4.37
15 | CN(C)C/C=C/C(=O)Nc1cc2c(Nc3ccc(F)c(Cl)c3)ncnc2cc1O[C@H]1CCOC1 [Afatinib (BIBW2992)] | -2.08
16 | CC(C)(C)c1cc(C(C)(C)C)c(NC(=O)c2c[nH]c3ccccc3c2=O)cc1O [Ivacaftor (VX-770)] | 0.118
17 | CCc1cccc(CC)c1NC(=O)N1Cc2[nH]nc(NC(=O)c3ccc(N4CCN(C)CC4)cc3)c2C1 | -0.096

Row | Structure (SMILES) | total neurite length per nucleus (z-score)
18 | O=c1ncn2nc(Sc3ccc(F)cc3F)ccc2c1-c1c(Cl)cccc1Cl | -0.0342
19 | CCOP(=O)(OCC)C(=Cc1cc(C(C)(C)C)c(O)c(C(C)(C)C)c1)P(=O)(OCC)OCC | 0.297
20 | CCN(CC)C(=O)C1(c2ccccc2)CC1CN (stereo not drawn) [Milnacipran HCl] | 0.0604
21 | CCCCCCCCc1ccc(CCC(N)(CO)CO)cc1 [Fingolimod (FTY720) HCl] | -3.9
22 | O=C(O)[C@]1(Cc2cccc(Nc3nccs3)n2)CC[C@@H](Oc2cccc(Cl)c2F)CC1 | 0.102
23 | Cc1cc(F)c(C(=O)Nc2cccc(-c3nncn3C(C)C)n2)cc1-n1cnc(C2CC2)c1 [Selonsertib (GS-4997)] | -0.174
24 | N=C(N)Nc1ccc(C(=O)Oc2ccc3cc(C(=N)N)ccc3c2)cc1 [Nafamostat Mesylate] | 0.18
25 | O=c1ccn([C@@H]2O[C@H](CO)[C@@H](O)[C@H]2O)c(=O)[nH]1 [Uridine] | 0.229
26 | O=C(Nc1cccc(C(F)(F)F)c1)Nc1cc(S(=O)(=O)NC2CC2)ccc1-c1ccsc1 | -0.408
27 | NCCc1c[nH]cn1 [Histamine 2HCl] | 0.239
28 | COc1ccc(S(=O)(=O)N(CCO)c2ccccc2CN(C)C/C=C/c2ccc(Cl)cc2)cc1 [KN-93 Phosphate] | -1.02
29 | Cc1ccc(Sc2cncc3sc(C(N)=O)cc23)cc1 | -2.29
30 | O=C1NCC2(CCN(CCc3ccccc3)CC2)O1 [Fenspiride HCl] | 0.934
31 | CCCCCCc1ccc(O)cc1O [Hexylresorcinol] | 1.06
32 | O=C(c1cc(Cc2n[nH]c(=O)c3ccccc23)ccc1F)N1CCN(C(=O)C2CC2)CC1 | 0.462
33 | COC(=O)C1=C(C)NC(C)=C(C(=O)OC(C)(C)CN(C)CCC(c2ccccc2)c2ccccc2)C1c1cccc([N+](=O)[O-])c1 (stereo not drawn) [Lercanidipine hydrochloride] | -6.4

Individual results from the results shown:
Value of CCCCCCc1ccc(O)cc1O [Hexylresorcinol] under total neurite length per nucleus (z-score): 1.06
Value of N=C(N)Nc1ccc(C(=O)Oc2ccc3cc(C(=N)N)ccc3c2)cc1 [Nafamostat Mesylate] under total neurite length per nucleus (z-score): 0.18
